Results are given in words; binding and its absence hold for the method and conditions named. In cells and extracts the contact can be indirect. Binding can be weak; no strength is given.
Columns and labels:
[1] = target: Flag-tagged HNRNPU mutant with the RGG domain mutated into a non-functional SGG domain (UniProt Q00839); assay: co-IP; tagged protein (HNRNPU-Flag, its Flag-tagged mutants, or DDX5-Myc) in HEK293T against the endogenous partner; NP40 buffer, antibody overnight at 4 °C, protein G magnetic beads, immunoblotting
[2] = target: Flag-tagged HNRNPU mutant with the SAP domain deleted (UniProt Q00839); assay: as above

Chains of the proteins cited; added tags and fusions are not shown. Lines headed by an entry give the natural chain unless they say otherwise; changes in a name come on top.
UniProt Q00839: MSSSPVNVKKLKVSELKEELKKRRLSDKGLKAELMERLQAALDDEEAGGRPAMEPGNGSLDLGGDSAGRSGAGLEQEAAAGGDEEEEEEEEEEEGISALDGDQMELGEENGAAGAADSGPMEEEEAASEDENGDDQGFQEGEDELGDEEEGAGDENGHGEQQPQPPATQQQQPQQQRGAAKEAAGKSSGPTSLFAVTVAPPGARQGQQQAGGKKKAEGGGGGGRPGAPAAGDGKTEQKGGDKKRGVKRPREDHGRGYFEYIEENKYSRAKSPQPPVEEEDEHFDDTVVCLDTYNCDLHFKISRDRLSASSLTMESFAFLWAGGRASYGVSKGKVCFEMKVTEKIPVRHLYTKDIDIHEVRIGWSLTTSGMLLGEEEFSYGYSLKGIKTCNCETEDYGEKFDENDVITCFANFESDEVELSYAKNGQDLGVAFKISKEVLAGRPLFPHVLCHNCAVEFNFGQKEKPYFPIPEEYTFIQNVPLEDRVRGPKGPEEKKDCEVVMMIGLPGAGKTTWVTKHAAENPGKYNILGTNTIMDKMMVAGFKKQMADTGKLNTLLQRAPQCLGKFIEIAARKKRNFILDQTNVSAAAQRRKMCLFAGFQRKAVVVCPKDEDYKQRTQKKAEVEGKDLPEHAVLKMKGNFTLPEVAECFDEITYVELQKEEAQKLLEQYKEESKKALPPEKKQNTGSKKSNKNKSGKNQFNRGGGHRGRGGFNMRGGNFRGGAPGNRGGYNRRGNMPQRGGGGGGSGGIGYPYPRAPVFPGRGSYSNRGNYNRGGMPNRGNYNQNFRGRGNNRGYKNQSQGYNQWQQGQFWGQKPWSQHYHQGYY
UniProt P17844: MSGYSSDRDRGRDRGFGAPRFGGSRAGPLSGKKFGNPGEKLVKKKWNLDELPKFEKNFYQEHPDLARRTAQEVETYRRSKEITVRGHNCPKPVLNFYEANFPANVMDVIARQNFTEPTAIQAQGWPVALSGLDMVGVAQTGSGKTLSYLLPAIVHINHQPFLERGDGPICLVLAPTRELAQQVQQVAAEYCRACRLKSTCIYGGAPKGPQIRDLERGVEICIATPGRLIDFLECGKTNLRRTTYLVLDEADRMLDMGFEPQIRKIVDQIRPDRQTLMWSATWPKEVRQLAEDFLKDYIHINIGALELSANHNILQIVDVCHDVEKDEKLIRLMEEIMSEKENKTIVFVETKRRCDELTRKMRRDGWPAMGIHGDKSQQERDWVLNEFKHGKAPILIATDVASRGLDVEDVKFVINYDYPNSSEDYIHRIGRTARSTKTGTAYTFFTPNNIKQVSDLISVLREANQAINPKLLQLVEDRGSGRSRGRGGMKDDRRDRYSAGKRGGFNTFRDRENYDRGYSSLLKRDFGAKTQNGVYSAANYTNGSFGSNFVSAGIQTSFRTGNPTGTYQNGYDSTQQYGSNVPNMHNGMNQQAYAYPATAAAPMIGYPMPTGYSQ

binding [1]: binds
binding [2]: binds
Substance: endogenous DDX5 (DEAD box helicase 5) (from UniProt P17844 1-614)

Reference: PMC9643420
